Measured values as given in paper doi:10.1101/2021.08.27.457973.

Biological target: T1, STK11IP-GFP (mouse) (UniProt Q3TAA7)
T1 sequence: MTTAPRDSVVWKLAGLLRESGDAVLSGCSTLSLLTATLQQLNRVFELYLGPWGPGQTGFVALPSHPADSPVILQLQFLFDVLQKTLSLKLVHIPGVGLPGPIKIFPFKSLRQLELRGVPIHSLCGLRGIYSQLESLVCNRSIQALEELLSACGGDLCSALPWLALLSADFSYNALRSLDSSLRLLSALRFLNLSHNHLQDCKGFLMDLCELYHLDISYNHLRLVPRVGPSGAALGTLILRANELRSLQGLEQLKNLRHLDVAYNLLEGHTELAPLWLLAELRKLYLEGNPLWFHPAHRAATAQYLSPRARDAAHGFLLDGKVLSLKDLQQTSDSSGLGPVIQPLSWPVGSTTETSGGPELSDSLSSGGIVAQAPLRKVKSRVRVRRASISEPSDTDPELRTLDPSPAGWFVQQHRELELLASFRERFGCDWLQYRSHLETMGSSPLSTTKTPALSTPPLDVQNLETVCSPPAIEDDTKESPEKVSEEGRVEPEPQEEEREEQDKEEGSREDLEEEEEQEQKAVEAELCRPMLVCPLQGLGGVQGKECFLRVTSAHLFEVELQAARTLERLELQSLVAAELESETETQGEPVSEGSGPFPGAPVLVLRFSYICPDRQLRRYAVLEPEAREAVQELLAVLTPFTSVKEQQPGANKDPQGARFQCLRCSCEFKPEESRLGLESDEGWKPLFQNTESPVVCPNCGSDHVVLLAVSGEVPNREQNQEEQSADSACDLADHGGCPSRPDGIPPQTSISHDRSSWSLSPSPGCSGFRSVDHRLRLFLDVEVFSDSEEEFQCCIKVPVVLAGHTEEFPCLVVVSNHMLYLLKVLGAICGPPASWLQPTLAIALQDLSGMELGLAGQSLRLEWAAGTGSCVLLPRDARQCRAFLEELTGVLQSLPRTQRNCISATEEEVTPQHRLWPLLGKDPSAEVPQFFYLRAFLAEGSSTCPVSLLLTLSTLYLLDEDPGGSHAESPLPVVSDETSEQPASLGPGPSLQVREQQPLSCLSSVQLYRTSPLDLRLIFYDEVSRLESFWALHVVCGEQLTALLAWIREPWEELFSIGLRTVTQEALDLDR
Assay: affinity purification with mass spectrometry

- binding: binds
B1: TMEM192 (endogenous) (protein, UniProt Q8IY95 1-271)
chain: MAAGGRMEDGSLDITQSIEDDPLLDAQLLPHHSLQAHFRPRFHPLPTVIIVNLLWFIHLVFVVLAFLTGVLCSYPNPNEDKCPGNYTNPLKVQTVIILGKVILWILHLLLECYIQYHHSKIRNRGYNLIYRSTRHLKRLALMIQSSGNTVLLLILCMQHSFPEPGRLYLDLILAILALELICSLICLLIYTVKIRRFNKAKPEPDILEEEKIYAYPSNITSETGFRTISSLEEIVEKQGDTIEYLKRHNALLSKRLLALTSSDLGCQPSRT

These are yes or no findings as the source states them, for the method shown. Binding seen in cells or lysates may run through a third protein. Here binding means that the protein was enriched with, or labelled near, the bait; the list need not be complete. Tags and fused reporters may be left off the sequences shown.
